At least one compound was matched to its structure with a doubt left.
Assays:
[1] = Loading efficiency in liposomes; format: physicochemical; settings: R848 in liposomes
Method: The lipid suspension was extruded through the 100 nm polycarbonate membrane using the extruder (Avanti, AL, USA) to obtain blank liposomes. Ethanol was removed by dialysis overnight at 4° C. To load the sonosensitizer in liposomes, ICG was firstly conjugated to a lipid tail such as DOPE before incubation with preformed blank liposomes at room temperature for 30 min. Unloaded ICG was removed by using the PD-10 column (GE Healthcare). To load PAPC (Avanti, AL, USA) in liposomes, the proper amount of PAPC in DMSO stock solution was incubated with liposomes containing ICG at room temperature for 30 min and the obtained formulation was used without further purification. To load R848 (Sigma, MO, USA) in liposomes, blank liposomes were firstly prepared in 250 mM ammonium sulfate, and the external ammonium sulfate was exchanged to 10% sucrose by dialysis overnight at 4° C., followed by incubation with R848 at 55° C. for 30 min and removal of unloaded R848 by dialysis overnight at 4° C. To measure the size of liposomes, 10 ul of liposomes were diluted to 2 mL with PBS and the size was measured with Zeta sizer. To measure the amount of ICG, 10 ul liposomes were added with 190 ul DMSO and the fluorescence was measured at Ex=780 nm, Em=810 nm.

CT26 = assay: Transwell co-culture assay, viability of CT26 tumor cells cocultured with RAW 264.7 macrophages (XTT); format: cell-based; settings: single component or component removed
Method: RAW 264.7 macrophages were seeded in a Transwell insert at a density of 200,000 cells per insert (Corning, N.Y., USA) and CT26 (ATCC, VA, USA) were seeded in the lower compartment at a density of 200,000 cells per well, which was separated by a porous membrane (well area: 0.3 cm^2, insert size: 6.5 mm). Cells were incubated with […] and/or 20 ng/mL ICG for 24 h. Ultrasound irradiation (frequency: 1 MHz; duty cycle: 50%; power: 2 W/cm^2) was performed for 5 min. The viability of tumor cells after treatment with different formulations in the absence or presence of ultrasound was determined by XTT Cell Proliferation Assay Kit (ATCC, VA, USA) following the manufacturer's instructions.

RAW 264.7 macrophages = assay: TNFα secretion from RAW 264.7 macrophages (ELISA); format: cell-based, mouse; settings: RAW264.7 macrophages; compared with no treatment control

## CCOCc1nc2c(N)nc3ccccc3c2n1CC(C)(C)O [R848, resiquimod]
[1]; active loading protocol
  loading efficiency: over 80%
[1]; passive loading protocol
  loading efficiency: ~10%
CT26
  CT26 cell viability: modest decrease of CT26 cell viability
RAW 264.7 macrophages
  TNFα release: didn't induce significant TNFα release
